Test results: patent US20240408159A1, “PHYTOENE-CONTAINING OLEORESIN AND COMPOSITION” (LYCORED LTD., priority 2021, published 2024)
At least one structure is not confirmed: it was looked up by name or label, or the drawing left a doubt.

Tested on: IL-8
Assay: Inhibition of DPM-induced IL-8 production in cultured HaCaT keratinocytes
Format: cell-based, human
Conditions: positive control, 24 hours, FIG. 3

## C[C@@H]1C[C@H]2[C@@H]3CCC4=CC(=O)C=C[C@]4(C)[C@@]3(F)[C@@H](O)C[C@]2(C)[C@@]1(O)C(=O)CO [dexamethasone]
  change in the basal level IL-8 production: does not cause a significant change
